Laboratory results: PubChem BioAssay AID1159578 (Peter MacCallum Cancer Centre, 2015)
In all, the deposit lists about 18,000 reagents; shown is a part drawn at random. About 1,030 of them (5.7%) were called active. 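Inactive calls also include pools with fewer than 3300 nuclei, whose migration was not assessed.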 Raw values vary from plate to plate and are shown uncorrected.

Purpose: 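siRNA pools altering how lymphatic endothelial cells close a scratch wound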 (primary screen)
Cell system: human lymphatic endothelial cells
Reagent: siRNA pool against human genes, 40 nM
Timing: 48 h after transfection
Measurement: 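High-content imaging of dye-stained cells in a scratch assay measures filled wound area and nuclei per well; duplicate means given as ratio to mock and robust z-score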
Direction: migration robust z-score: higher = faster migration into the scratch; migration relative to mock: higher = more scratch area covered than mock; nuclei per well: higher = more cells in the well
Call rule: 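Migration changed when robust z exceeds 2 or falls below -2 and mean nuclei number is at least 3300; otherwise not called changed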
Meaning of the calls: active = migration changed; inactive = no migration change, or too few cells

target | migration robust z-score | migration class with cell-count check | migration relative to mock | nuclei per well, duplicate mean | Outcome
DNAJC8 | 0.04 | migration z between -2 and 2; enough cells | 0.9 | 5458 | inactive
OR2Z1 | -1.28 | migration z between -2 and 2; enough cells | 0.55 | 5694 | inactive
PDE6D | 0.39 | migration z between -2 and 2; enough cells | 0.88 | 6934 | inactive
PGR | 0.34 | migration z between -2 and 2; enough cells | 0.87 | 5488 | inactive
SLC35E1 | 0.78 | migration z between -2 and 2; enough cells | 1.08 | 6554 | inactive
RGS14 | 0.02 | migration z between -2 and 2; enough cells | 0.89 | 5708 | inactive
CLK4 | -1.25 | migration z between -2 and 2; enough cells | 0.56 | 5932 | inactive
CD247 | 0 | migration z between -2 and 2; enough cells | 0.8 | 5061 | inactive
KRABD2 | -1.3 | migration z between -2 and 2; enough cells | 0.55 | 6311 | inactive
NKX2-8 | -1.77 | migration z between -2 and 2; enough cells | 0.46 | 5352 | inactive
IL12A | -0.78 | migration z between -2 and 2; enough cells | 0.68 | 5880 | inactive
PLD6 | 1.47 | migration z between -2 and 2; enough cells | 1.27 | 5954 | inactive
ZNF281 | 1.27 | migration z between -2 and 2; enough cells | 1.05 | 4348 | inactive
CHPT1 | 0.16 | migration z between -2 and 2; enough cells | 0.84 | 3800 | inactive
GPNMB | -1.31 | migration z between -2 and 2; enough cells | 0.54 | 5266 | inactive
NBPF8 | 0.56 | migration z between -2 and 2; enough cells | 1.03 | 5333 | inactive
MS4A13 | 0.94 | migration z between -2 and 2; enough cells | 1.12 | 7486 | inactive
ZFAND2B | 0.88 | migration z between -2 and 2; enough cells | 1.11 | 4054 | inactive
DERL1 | 2.43 | migration z above 2; enough cells | 1.52 | 6732 | active
TRUB1 | -0.31 | migration z between -2 and 2; enough cells | 0.74 | 5994 | inactive
ASB16 | -7.27 | under 3300 nuclei; migration not judged | -0.6 | 1626 | inactive
PSMD13 | 0.16 | migration z between -2 and 2; enough cells | 0.92 | 6438 | inactive
SLC12A8 | -0.3 | migration z between -2 and 2; enough cells | 0.81 | 5700 | inactive
OR2A5 | -1.32 | migration z between -2 and 2; enough cells | 0.55 | 7322 | inactive
BCL2L11 | -0.46 | migration z between -2 and 2; enough cells | 0.72 | 6217 | inactive
MAST3 | -2.08 | migration z below -2; enough cells | 0.4 | 3834 | active
SMR3A | 0.52 | migration z between -2 and 2; enough cells | 1.02 | 5375 | inactive
ABHD5 | 0.42 | migration z between -2 and 2; enough cells | 0.88 | 5400 | inactive
NOLC1 | -2.24 | under 3300 nuclei; migration not judged | 0.3 | 2746 | inactive
ST3GAL5 | 1.14 | migration z between -2 and 2; enough cells | 1.02 | 6188 | inactive
PTEN | 0.03 | migration z between -2 and 2; enough cells | 0.81 | 5947 | inactive
SLC35B4 | -2.12 | migration z below -2; enough cells | 0.34 | 5096 | active
SOX7 | 1.75 | migration z between -2 and 2; enough cells | 1.34 | 6344 | inactive
SLN | 1.19 | migration z between -2 and 2; enough cells | 1.2 | 6890 | inactive
NUDT13 | -0.75 | migration z between -2 and 2; enough cells | 0.66 | 4682 | inactive
VPS72 | 0.8 | migration z between -2 and 2; enough cells | 0.96 | 6950 | inactive
INO80C | -1.19 | migration z between -2 and 2; enough cells | 0.57 | 5470 | inactive
LUZP4 | -0.06 | migration z between -2 and 2; enough cells | 0.88 | 4836 | inactive

9 entries from above, reformatted.
| target | migration robust z-score | migration class with cell-count check | migration relative to mock | nuclei per well, duplicate mean | Outcome |
| --- | --- | --- | --- | --- | --- |
| PDE6D | 0.39 | migration z between -2 and 2; enough cells | 0.88 | 6934 | inactive |
| PGR | 0.34 | migration z between -2 and 2; enough cells | 0.87 | 5488 | inactive |
| SLC35E1 | 0.78 | migration z between -2 and 2; enough cells | 1.08 | 6554 | inactive |
| RGS14 | 0.02 | migration z between -2 and 2; enough cells | 0.89 | 5708 | inactive |
| CLK4 | -1.25 | migration z between -2 and 2; enough cells | 0.56 | 5932 | inactive |
| CD247 | 0 | migration z between -2 and 2; enough cells | 0.8 | 5061 | inactive |
| KRABD2 | -1.3 | migration z between -2 and 2; enough cells | 0.55 | 6311 | inactive |
| NKX2-8 | -1.77 | migration z between -2 and 2; enough cells | 0.46 | 5352 | inactive |
| IL12A | -0.78 | migration z between -2 and 2; enough cells | 0.68 | 5880 | inactive |

Further reagents follow.
target | migration robust z-score | migration class with cell-count check | migration relative to mock | nuclei per well, duplicate mean | Outcome
HDHD2 | -1.82 | migration z between -2 and 2; enough cells | 0.46 | 4596 | inactive
PATL1 | -1.85 | migration z between -2 and 2; enough cells | 0.4 | 4862 | inactive
ARL4D | 1.12 | migration z between -2 and 2; enough cells | 1.02 | 4958 | inactive
CACNA1G | -0.26 | migration z between -2 and 2; enough cells | 0.76 | 5248 | inactive
MRPL11 | -2.63 | migration z below -2; enough cells | 0.2 | 4024 | active
CDCA5 | -1.6 | under 3300 nuclei; migration not judged | 0.48 | 2924 | inactive
GAB1 | -0.14 | migration z between -2 and 2; enough cells | 0.85 | 3918 | inactive
MAGEB10 | -0.14 | migration z between -2 and 2; enough cells | 0.86 | 5474 | inactive
MTIF2 | 1.5 | migration z between -2 and 2; enough cells | 1.09 | 6175 | inactive
NOAZFP | -0.28 | migration z between -2 and 2; enough cells | 0.75 | 4645 | inactive
TICAM1 | -0.46 | migration z between -2 and 2; enough cells | 0.76 | 5446 | inactive
MPC1 | 1.77 | migration z between -2 and 2; enough cells | 1.34 | 4835 | inactive
FEM1C | 1.45 | migration z between -2 and 2; enough cells | 1.26 | 5577 | inactive
AOC2 | -0.52 | migration z between -2 and 2; enough cells | 0.75 | 6503 | inactive
DCUN1D2 | 1.3 | migration z between -2 and 2; enough cells | 1.05 | 4994 | inactive
MDC1 | 1.05 | migration z between -2 and 2; enough cells | 1.16 | 5248 | inactive
RGS7BP | 1.9 | migration z between -2 and 2; enough cells | 1.38 | 5942 | inactive
FA2H | -1.38 | migration z between -2 and 2; enough cells | 0.54 | 3972 | inactive
REG3A | -0.62 | migration z between -2 and 2; enough cells | 0.68 | 5305 | inactive
GRM7 | 0.62 | migration z between -2 and 2; enough cells | 0.92 | 6080 | inactive
CELF2 | -0.52 | migration z between -2 and 2; enough cells | 0.75 | 5028 | inactive
POR | 1.06 | migration z between -2 and 2; enough cells | 1.01 | 5236 | inactive
HSPA4L | 0.31 | migration z between -2 and 2; enough cells | 0.86 | 5944 | inactive
SLC38A11 | -0.08 | migration z between -2 and 2; enough cells | 0.79 | 5298 | inactive
PLPPR4 | 0.64 | migration z between -2 and 2; enough cells | 0.93 | 5216 | inactive
LCORL | 0.44 | migration z between -2 and 2; enough cells | 0.89 | 4791 | inactive
C1orf220 | -0.56 | migration z between -2 and 2; enough cells | 0.74 | 5194 | inactive
OLIG2 | -1.68 | migration z between -2 and 2; enough cells | 0.48 | 6584 | inactive
UBE2V2 | 0.99 | migration z between -2 and 2; enough cells | 0.99 | 5082 | inactive
CGAS | 0.27 | migration z between -2 and 2; enough cells | 0.95 | 4536 | inactive
IMPG1 | -0.07 | migration z between -2 and 2; enough cells | 0.86 | 5302 | inactive
ARHGEF26 | -1.31 | migration z between -2 and 2; enough cells | 0.54 | 4856 | inactive
ACSS3 | -0.76 | migration z between -2 and 2; enough cells | 0.69 | 6316 | inactive
LSP1 | -0.79 | migration z between -2 and 2; enough cells | 0.68 | 5832 | inactive
CALM1 | 0 | migration z between -2 and 2; enough cells | 0.8 | 5893 | inactive
